No signal at the amounts used counts as a negative. Tags and fusion partners may be left off the protein sequences shown. For part of these data: The comparison behind a weaker result is the experiment's own reference, which may not be listed here. For part of these data: Construct, isoform or probe ends are uncertain for at least one entry.
What was measured:
[1] = target: T1, Rif1 full-length (His6-Rif1-FLAG3) (Schizosaccharomyces pombe (fission yeast)) (UniProt Q96UP3); assay: EMSA; details: EMSA with oligos heat-denatured and renatured in 50 mM KCl/40% PEG200 (Fig 5: 50 mM Tris-HCl pH 7.5 with KCl, NaCl or none), gel shift buffer 40 mM Hepes-KOH pH 7.6, recombinant protein, residues 1-1400, protein details: N-term His6, C-term FLAG3, label: 32P
T1 sequence (looked up): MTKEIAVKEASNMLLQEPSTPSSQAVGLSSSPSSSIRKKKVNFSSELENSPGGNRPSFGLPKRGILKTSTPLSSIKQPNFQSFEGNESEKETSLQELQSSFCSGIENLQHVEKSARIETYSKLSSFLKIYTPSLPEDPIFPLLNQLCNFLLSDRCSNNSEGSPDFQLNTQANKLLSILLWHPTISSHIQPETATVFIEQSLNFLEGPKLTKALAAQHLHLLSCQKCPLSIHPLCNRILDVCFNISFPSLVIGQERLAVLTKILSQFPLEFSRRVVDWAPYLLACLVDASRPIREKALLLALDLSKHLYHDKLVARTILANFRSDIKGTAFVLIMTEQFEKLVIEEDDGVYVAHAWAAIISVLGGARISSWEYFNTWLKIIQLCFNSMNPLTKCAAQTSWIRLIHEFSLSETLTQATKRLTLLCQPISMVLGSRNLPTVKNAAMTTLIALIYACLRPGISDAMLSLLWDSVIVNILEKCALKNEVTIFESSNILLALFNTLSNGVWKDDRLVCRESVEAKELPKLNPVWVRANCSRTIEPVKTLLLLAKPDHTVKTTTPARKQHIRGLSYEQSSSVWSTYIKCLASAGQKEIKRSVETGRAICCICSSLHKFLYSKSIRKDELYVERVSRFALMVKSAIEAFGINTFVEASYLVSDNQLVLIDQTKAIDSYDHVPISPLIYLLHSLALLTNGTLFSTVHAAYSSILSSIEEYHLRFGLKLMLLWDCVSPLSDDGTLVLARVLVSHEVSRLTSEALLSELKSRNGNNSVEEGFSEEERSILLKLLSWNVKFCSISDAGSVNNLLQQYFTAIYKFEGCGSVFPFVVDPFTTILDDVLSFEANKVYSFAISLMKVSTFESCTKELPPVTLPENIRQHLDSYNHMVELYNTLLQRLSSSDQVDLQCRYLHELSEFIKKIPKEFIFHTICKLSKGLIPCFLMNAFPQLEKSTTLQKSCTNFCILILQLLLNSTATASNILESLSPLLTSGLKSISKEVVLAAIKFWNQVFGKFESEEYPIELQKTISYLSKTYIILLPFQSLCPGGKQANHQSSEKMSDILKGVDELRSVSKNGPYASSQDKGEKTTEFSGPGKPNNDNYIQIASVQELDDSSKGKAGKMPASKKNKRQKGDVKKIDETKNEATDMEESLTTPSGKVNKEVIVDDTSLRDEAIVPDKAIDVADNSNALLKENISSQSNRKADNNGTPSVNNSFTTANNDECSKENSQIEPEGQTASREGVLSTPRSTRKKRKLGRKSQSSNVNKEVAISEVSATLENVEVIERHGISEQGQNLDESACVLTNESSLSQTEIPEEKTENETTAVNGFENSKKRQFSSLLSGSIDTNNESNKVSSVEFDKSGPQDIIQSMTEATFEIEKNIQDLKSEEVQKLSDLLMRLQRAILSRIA

[2] = target: T1, Rif1 full-length (His6-Rif1-FLAG3) (Schizosaccharomyces pombe (fission yeast)); assay: pull-down; details: co-pull-down with biotin-T6G24 and Rif1, 1 M NaCl wash; recombinant protein; residues 1-1400; protein details: N-term His6, C-term FLAG3; label: 32P; single-stranded DNA
[3] = 50 mM NaCl, folded or branched DNA
[4] = no salt, folded or branched DNA

TTGGGTGGGTGGGTGGGT [T95_2T]
binding result ([1]; KCl, folded or branched DNA): binds more weakly

GGGTGGGAGGAGGGT [93del_deltaG]
binding result ([1]; KCl, folded or branched DNA): binds more weakly

TTGGGGGGTGGGTGGGTGGGT [T95_2T_GGG]
binding result ([1]; KCl, weakly bound in Fig S3, folded or branched DNA): binds more weakly

AGGGCTAGGGCTACTAGGGGGG [Htelo4(GGGGGG)_3nt_spacer]
binding result [1, 3]: binds more weakly
binding result [1, 4]: binds more weakly

AAGGGTGGGTGTAAGTGTGGGTGGGT [CEB25]
binding result ([1]; KCl, folded or branched DNA): binds more weakly

TAGGGTTAGGGTTAGGGGGG [Htelo1_no_spacer_2]
binding result [1, 3]: binds more weakly
binding result [1, 4]: binds more weakly

TTACAGGTTACAGGTTACAGG (double strand) [Taz1BS]
binding result ([1]; without Taz1): no binding

AGGGTTAGGGAGGGAGGGTGG [CEB1_TTA]
binding result [1, 3]: binds more weakly
binding result [1, 4]: binds more weakly

TTTTTTGAGAGAGAGAGAGAGAGAGAGAGA [T6(GA)12]
binding result [2]: no binding

GGGGGGGG [G8]
binding result ([1]; bound to a small extent, folded or branched DNA): binds more weakly

AGTGGGGG
binding result ([1]; KCl, folded or branched DNA): binds more weakly

GGGUUGCGGAGGGUGGGC [TERC18]
binding result ([1]; KCl): binds more weakly

AGGGTAGGGAGGGAGGGTGG [CEB1_TA]
binding result [1, 3]: binds more weakly
binding result [1, 4]: binds more weakly

AGTGGGG
binding result ([1]; KCl, folded or branched DNA): binds more weakly

— article PMC6565636, “Rif1 promotes association of G-quadruplex (G4) by its specific G4 binding and oligomerization activities”
